Earlier results as cited in patent US20240315989A1 (priority 2021, published 2024).

Sequences of proteins named here, by UniProt entry; tags and fusion partners are left off.
UniProt Q9R0C9, whole entry: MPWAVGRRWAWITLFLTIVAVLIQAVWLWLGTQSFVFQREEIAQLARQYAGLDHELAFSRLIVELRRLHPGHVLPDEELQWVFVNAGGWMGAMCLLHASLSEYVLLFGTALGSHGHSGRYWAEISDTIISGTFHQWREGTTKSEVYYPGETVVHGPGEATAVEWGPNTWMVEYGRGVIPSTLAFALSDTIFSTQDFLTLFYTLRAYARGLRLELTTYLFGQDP

Biological target: sigma-1 receptors (Rattus norvegicus, UniProt Q9R0C9)
Details: cited from earlier work

CN[C@H]1CC[C@@H](c2ccc(Cl)c(Cl)c2)c2ccccc21 [sertraline]
Ki: 31.6 nM
